# Test results: PubChem BioAssay AID2685 (National Center for Advancing Translational Sciences (NCATS), 2010)
# The whole screen tested about 320,000 compounds, of which about 2,100 (0.66%) were called active. The inconclusive results got no clear call from the source; some entries with a clear call stand among them for comparison. The call rests on the fitted dose curve; in most records, active means well fitted inhibition curve with a large enough effect in the signal ratio, with a control signal flat (not every such curve was filed as active); inconclusive means small, poorly fitted or top-dose-only effect, or effect the other way, or a change in a side signal; inactive means flat fitted curve, though single readings scatter; the % refers to the signal ratio. A potency beside an inconclusive call is a rough fit, not a confirmed value.
# Assay: qHTS Assay for Lipid Storage Modulators in Drosophila S3 Cells
# Conditions: BODIPY lipid droplet fluorescence, 18-24 h, cells fed with added oleic acid; lipid storage change, negative = inhibition: at 46.1 µM (top of the series) unless noted
# Procedure, shortened: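 Drosophila S3 cells loaded with oleic acid (400 uM, as added) and compounds at several concentrations; lipid droplets imaged by 488-nm laser-scanning cytometry, 500–530 nm intensity and object ratio to cell channel. Percent activity normalized to 20 uM Triacsin C.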
# On the % scale 0 is the no-effect control and ±100 the full control effect; potency means the concentration at half of the fitted maximal effect.
Structure (SMILES),"lipid storage change, negative = inhibition",Potency
C[C@@H](C(=O)Nc1ccc2ccccc2c1)[C@@H]1C[C@@]1(C)[C@@H](NC(=O)c1cccnc1)c1ccccc1,inconclusive: 12.5%,
Cc1ccc(-c2nnc(SCC(=O)NNC(=O)COc3cccc4ccccc34)n2C)cc1,,"inconclusive: 3.66 µM [activator, full curve, poor fit]"
CCOC(=S)SCC(=O)Nc1nc(-c2ccccc2)cs1,,active: 23.1 µM
COc1ccccc1N(C)S(=O)(=O)c1ccc(C)c(C(=O)Nc2nccs2)c1,inconclusive: -36.1%,
COc1cccc(-c2c(C#N)c(N)nc3c2c(=O)nc2sccn23)c1,,"inconclusive: 0.58 µM [falling, partial curve, poor fit]"
COc1ccc(-c2nc(C#N)c(NCc3ccc(F)cc3)o2)cc1OC,,"inconclusive: 0.058 µM [activator, full curve, poor fit]"
CC1(C)CC(=O)C(C(=O)C2CCN(S(=O)(=O)c3ccccc3)CC2)C(=O)C1,inconclusive: 7.86%,
Cc1cc(C(=O)NNC(=S)NCC2CCCO2)cs1 (centres undefined),,"inconclusive: 0.0461 µM [falling, full curve, poor fit]"
O=C(CCC(=O)N1CCSc2ccccc21)NC1CCCCC1,inconclusive: 38.2%,
CCC(CC)C(=O)c1c[nH]c(C(=O)NCc2ccncc2)c1,,"inconclusive: 6.51 µM [rising, single point]"
CCN(CC)S(=O)(=O)c1ccc(OC)c(NC(=O)CSc2cc(Cl)ccc2Cl)c1,inconclusive: 25.5%,
COc1ccccc1NC(=O)c1c(NC(=O)c2ccco2)sc2c1CCC2,inconclusive: 13.9%,
O=C(CNC1CCCCC1)Nc1cc(S(=O)(=O)N2CCOCC2)ccc1Cl,inconclusive: 14.2%,
COC(=O)CNC(=O)c1c(-c2ccccc2Cl)noc1C,,"inconclusive: 6.51 µM [falling, single point]"
O=C(CC(C(=O)O)C1CCCO1)NCCc1ccc2c(c1)OCO2 (centres undefined),inconclusive: -10.1%,
COC(=O)c1ccc(-c2nc3ccc(C)cc3o2)cc1,inconclusive: -6.53%,
CC(C)CN(C(=O)c1cccc(Cl)c1)c1c(N)n(Cc2ccccc2)c(=O)[nH]c1=O,,"inconclusive: 29.1 µM [falling, single point]"
COc1ccc(C2=NN(C(=O)CCC(=O)O)C(c3ccc(Br)cc3)C2)cc1 (centres undefined),,"inconclusive: 0.517 µM [activator, full curve]"
Cc1ccsc1C(=O)OCC(=O)N1CCc2ccccc2C1,inconclusive: -49.4%,
COc1ccc(N2CCN(CCNC(=O)CCNS(=O)(=O)c3cccs3)CC2)cc1,inconclusive: 10.3%,
COc1ccc(C(=O)C(CN2CCOCC2)c2ccccc2)cc1 (centres undefined),,"inconclusive: 13 µM [falling, single point]"
Cc1cc(CN2CCCCC2C(=O)Nc2ccc(Oc3cccnc3)cc2)oc1C (centres undefined),,"inconclusive: 9.2 µM [activator, partial curve, poor fit]"
O=C(CSc1nnc(Nc2ccccc2F)s1)NC1CCCC1,,active: 11.6 µM
CCN1CCN(c2ccc(NC(=O)c3cc(OC)c(OC)c(OC)c3)cc2)CC1,inconclusive: -8.6%,
O=C(O)CCC(=O)Nc1nc2ccccc2s1,,"inconclusive: 29.1 µM [cytotoxic, single point]"

Structure (SMILES),"lipid storage change, negative = inhibition",Potency
Cc1cc(=O)oc2cc(OCC(=O)OCC(=O)N(C)C3CCS(=O)(=O)C3)ccc12 (centres undefined),inactive,
CCOC(=O)C1CCN(C(=O)CCNS(=O)(=O)c2ccc(C)cc2)CC1,,"inconclusive: 0.0041 µM [falling, full curve, poor fit]"
CSc1ccccc1NC(=O)CN(C)C(=O)Cn1c(=O)oc2ccccc21,inconclusive,
CCN1CCN(c2nc(-c3ccccc3)nc3ccccc23)CC1,inconclusive: 137%,
Cc1oc(-c2cccc(Cl)c2)nc1CN1CCC(C(=O)NCCCN2CCCC2=O)CC1,inconclusive: -4.01%,
COc1ccc(CC(=O)NNC(=O)c2cnccn2)cc1,,"inconclusive: 6.51 µM [activator, partial curve, poor fit]"
CCn1cc(Cl)c(C(=O)Nc2nccs2)n1,,"inconclusive: 29.1 µM [falling, single point]"
COC(=O)c1ccc(NC(=O)c2ccccc2N(C)S(C)(=O)=O)cc1,inconclusive: -42.8%,
COc1ccc(NC(=O)c2ccccc2)cc1,,"inconclusive: 23.1 µM [falling, single point]"
CCc1cccc(C)c1NC(=O)C1C2CCC(O2)C1C(=O)O (centres undefined),,"inconclusive: 29.1 µM [falling, single point]"
CCNC(=S)N(Cc1cc2cc(C)ccc2[nH]c1=O)C1CCCC1,inconclusive: 5.49%,
COc1ccccc1/C=C\C=N\n1c(-c2ccc(Cl)cc2)n[nH]c1=S,,"inconclusive: 2.91 µM [activator, single point]"
O=Cc1c(Nc2ccccc2Cl)nc2ccccn2c1=O,,"inconclusive: 20.6 µM [falling, single point]"
O=C1NC2(CCCC2)N=C1c1ccc(Cl)cc1,,"inconclusive: 20.6 µM [activator, single point]"
Cc1c(NC(=O)C(C)OC(=O)c2cccs2)c(=O)n(-c2ccccc2)n1C (centres undefined),,"inconclusive: 0.291 µM [falling, full curve, poor fit]"
CCOC(=O)c1cc(C)n(CCc2ccccc2)c1C,,"inconclusive: 6.51 µM [activator, single point]"
Cc1cc(C)nc(SCc2ccc(Cl)cc2)n1,inconclusive: 16.8%,
CCOC(=O)c1c(C)[nH]c(C(=O)OC(C)C(=O)NC2CCCCC2C)c1C (centres undefined),,"inconclusive: 29.1 µM [cytotoxic, single point]"
Cc1cccc(C)c1OCC(=O)N(Cc1cccs1)C1CCS(=O)(=O)C1 (centres undefined),inconclusive: 13.5%,
CCC1CCCCN1C(=O)c1sc2nc(C)nc(N(CC)CC)c2c1C (centres undefined),inactive,
Cc1c(OCC(=O)OC(C)(C)C)ccc2c3c(c(=O)oc12)CCC3,,"inconclusive: 2.91 µM [activator, partial curve]"
CSc1nc2n(n1)C(c1cccs1)C1=C(CCCC1=O)N2 (centres undefined),inconclusive: -20.7%,
N#Cc1ccccc1NC(=O)COC(=O)/C=C/c1cn(-c2ccccc2)nc1-c1ccc(Cl)cc1,inconclusive: -7.75%,
Cc1ccc(NC(=O)C2CCCN(c3cnccn3)C2)c(C)c1 (centres undefined),inconclusive: 101%,
CCCCCCCCn1c(=O)c(C(=O)OC)c(N)c2ccccc21,inconclusive: -97.3%,

# In the list so far, three have a cyano group.
Structure (SMILES),"lipid storage change, negative = inhibition",Potency
COc1cccc(-c2c(C#N)c(N)nc3c2c(=O)nc2sccn23)c1,,"inconclusive: 0.58 µM [falling, partial curve, poor fit]"
COc1ccc(-c2nc(C#N)c(NCc3ccc(F)cc3)o2)cc1OC,,"inconclusive: 0.058 µM [activator, full curve, poor fit]"
N#Cc1ccccc1NC(=O)COC(=O)/C=C/c1cn(-c2ccccc2)nc1-c1ccc(Cl)cc1,inconclusive: -7.75%,

# Later entries:

Structure (SMILES),"lipid storage change, negative = inhibition",Potency
COc1ccccc1N1CCN(C(=O)/C=C/c2ccco2)CC1,inconclusive: -1.29%,
COc1ccc(OC)c(CN2CCN(Cc3cc(OC)c(OC)c(OC)c3)CC2)c1,,"inconclusive: 0.517 µM [falling, partial curve, poor fit]"
Cc1cc(C)nc(N/N=C/c2c[nH]c3ccccc23)n1,inconclusive: -7.7%,
Cc1ccc(NC(=O)C(C)OC(=O)CCNS(=O)(=O)c2ccc(C)cc2)cc1 (centres undefined),inconclusive: -5.61%,
O=C(Oc1ccccc1)c1ccc(-n2cnnn2)cc1,,"inconclusive: 4.61 µM [falling, single point]"
Cc1occc1C(=O)Nc1ccc(S(N)(=O)=O)cc1,inconclusive: 13.7%,
CCCc1nn(C)c(C(=O)Nc2ccc3ccccc3c2)c1Cl,,"inconclusive: 11.6 µM [activator, partial curve]"
O=C1COc2ccc(C(=O)COC(=O)c3cnc(Cl)c(Cl)c3)cc2N1,inconclusive: -0.795%,
CC(OC(=O)CN1C(=O)c2ccccc2C1=O)C(=O)NC1(C#N)CCCCC1 (centres undefined),,"inconclusive: 4.61 µM [falling, full curve, poor fit]"
COc1ccc(CCn2c(=O)c3cccnc3n(Cc3cccc([N+](=O)[O-])c3)c2=O)cc1OC,inconclusive: -15.2%,
CCOC(=O)c1c(C)[nH]c(C(=O)O)c1C,,"inconclusive: 2.31 µM [rising, single point]"
CC(=O)C1=C(O)C(=O)OC1c1ccc(Cl)cc1 (centres undefined),inconclusive: -22.2%,
CCN(CC)CC(=O)Nc1sc(C)cc1C(=O)c1ccc(C)cc1,inconclusive: 171%,
Cc1ccccc1C(=O)N1CCC(C(=O)Nc2sccc2C(N)=O)CC1,,"inconclusive: 32.6 µM [activator, single point]"
CCc1noc(C)c1C(=O)NNC(=O)COc1ccc(C)cc1,inconclusive: 1.67%,
COc1ccc(CCNC(=O)C2CCN(S(=O)(=O)c3ccc(-n4cnnn4)cc3)CC2)cc1OC,inconclusive: 332%,
COc1cccc(CNC(=O)CCS(=O)(=O)c2ccc3c(c2)NC(=O)CS3)c1,,"inconclusive: 20.6 µM [activator, single point]"
COc1ccccc1C(=O)Nc1ccc2c(c1)C(=O)NC2=O,,"inconclusive: 20.6 µM [falling, single point]"
O=C(Cc1cccs1)NCc1ccc(Cl)cc1,inconclusive: 21.8%,
COc1ccc(N(CC(=O)NCCc2ccccc2)C(=O)c2csnn2)cc1,inconclusive: 63.7%,
COc1ccc(C)cc1NC(=O)C(=O)NCc1ccncc1,inactive,
CC(C)[C@H](NC(=O)[C@H](Cc1ccccc1)n1c(=O)[nH]c2ccccc2c1=O)C(=O)N[C@@H](Cc1ccccc1)C(=O)O,,"inconclusive: 0.651 µM [falling, single point]"
O=S(=O)(Nc1cc(F)ccc1F)c1cccc2nonc12,inconclusive: -31.7% [at 0.00295 µM],
CC(=O)Nc1ccc(Nc2nc3ccccc3n3cnnc23)cc1,inconclusive: 11.3%,

# Two records picked at random from those above:
Structure (SMILES),"lipid storage change, negative = inhibition",Potency
CC(C)[C@H](NC(=O)[C@H](Cc1ccccc1)n1c(=O)[nH]c2ccccc2c1=O)C(=O)N[C@@H](Cc1ccccc1)C(=O)O,,"inconclusive: 0.651 µM [falling, single point]"
Cc1ccccc1C(=O)N1CCC(C(=O)Nc2sccc2C(N)=O)CC1,,"inconclusive: 32.6 µM [activator, single point]"
